Results: publication PMC6246747
Results are given in words; binding and its absence hold for the method and conditions named. In cells and extracts the contact can be indirect. Some entries that bind do so weakly or less than the wild type.

Protein sequences, listed by entry. Tags and fused reporters are not part of them.
UniProt O35718: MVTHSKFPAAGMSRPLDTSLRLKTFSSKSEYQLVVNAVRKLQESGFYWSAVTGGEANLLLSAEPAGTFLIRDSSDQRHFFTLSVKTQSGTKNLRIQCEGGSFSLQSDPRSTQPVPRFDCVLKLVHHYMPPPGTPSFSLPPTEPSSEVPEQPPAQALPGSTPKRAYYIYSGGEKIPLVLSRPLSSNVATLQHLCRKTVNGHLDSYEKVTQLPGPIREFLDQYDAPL
UniProt P70340: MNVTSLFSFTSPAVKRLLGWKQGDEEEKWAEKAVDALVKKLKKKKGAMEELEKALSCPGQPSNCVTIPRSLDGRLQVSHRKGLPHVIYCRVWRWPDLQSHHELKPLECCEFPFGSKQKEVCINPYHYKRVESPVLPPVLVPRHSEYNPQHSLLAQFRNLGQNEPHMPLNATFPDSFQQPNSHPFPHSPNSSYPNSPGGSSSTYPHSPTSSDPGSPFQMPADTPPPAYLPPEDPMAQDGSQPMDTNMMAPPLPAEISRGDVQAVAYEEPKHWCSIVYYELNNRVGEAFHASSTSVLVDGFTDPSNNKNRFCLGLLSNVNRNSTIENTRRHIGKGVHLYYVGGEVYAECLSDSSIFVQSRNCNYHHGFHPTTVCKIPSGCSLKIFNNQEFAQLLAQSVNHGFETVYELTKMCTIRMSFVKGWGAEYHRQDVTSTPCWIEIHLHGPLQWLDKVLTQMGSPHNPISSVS

Target: myc-tagged SOCS3 (UniProt O35718)
Experiment: co-IP; lysate (RIPA lysis buffer with protease and phosphatase inhibitors) of MC3T3/E1 cells stably overexpressing myc-tagged SOCS3; immunoprecipitated overnight at 4°C with anti-myc antibody; precipitates blotted for Smad1 and SOCS3

binding: binds
Substance: Smad1 (from UniProt P70340 1-465)
